# Results of single-concentration screens

By UniProt entry, the sequences of proteins in these tests, tags left out.
UniProt P9WNZ1, whole entry: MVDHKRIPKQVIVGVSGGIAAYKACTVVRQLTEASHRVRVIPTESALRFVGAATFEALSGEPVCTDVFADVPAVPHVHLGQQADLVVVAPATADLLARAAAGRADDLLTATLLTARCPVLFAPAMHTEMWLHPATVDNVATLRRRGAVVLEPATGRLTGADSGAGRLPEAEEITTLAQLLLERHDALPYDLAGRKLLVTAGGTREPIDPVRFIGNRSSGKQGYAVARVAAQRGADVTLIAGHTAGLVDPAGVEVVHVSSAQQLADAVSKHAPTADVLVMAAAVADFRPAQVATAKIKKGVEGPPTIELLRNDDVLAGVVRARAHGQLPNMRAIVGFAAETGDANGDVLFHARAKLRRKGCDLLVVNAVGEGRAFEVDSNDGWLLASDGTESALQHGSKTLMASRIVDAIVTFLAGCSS
UniProt P9WFT3, whole entry: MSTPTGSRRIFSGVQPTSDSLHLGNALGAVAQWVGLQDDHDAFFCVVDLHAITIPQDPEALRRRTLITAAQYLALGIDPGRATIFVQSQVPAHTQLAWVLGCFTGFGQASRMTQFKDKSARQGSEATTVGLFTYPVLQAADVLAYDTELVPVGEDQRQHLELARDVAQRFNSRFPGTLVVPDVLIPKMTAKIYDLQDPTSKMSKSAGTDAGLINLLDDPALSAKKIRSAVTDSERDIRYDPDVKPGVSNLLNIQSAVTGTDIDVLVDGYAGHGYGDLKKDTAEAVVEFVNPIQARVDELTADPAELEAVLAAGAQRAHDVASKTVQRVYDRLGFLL
UniProt I6X8D2, whole entry: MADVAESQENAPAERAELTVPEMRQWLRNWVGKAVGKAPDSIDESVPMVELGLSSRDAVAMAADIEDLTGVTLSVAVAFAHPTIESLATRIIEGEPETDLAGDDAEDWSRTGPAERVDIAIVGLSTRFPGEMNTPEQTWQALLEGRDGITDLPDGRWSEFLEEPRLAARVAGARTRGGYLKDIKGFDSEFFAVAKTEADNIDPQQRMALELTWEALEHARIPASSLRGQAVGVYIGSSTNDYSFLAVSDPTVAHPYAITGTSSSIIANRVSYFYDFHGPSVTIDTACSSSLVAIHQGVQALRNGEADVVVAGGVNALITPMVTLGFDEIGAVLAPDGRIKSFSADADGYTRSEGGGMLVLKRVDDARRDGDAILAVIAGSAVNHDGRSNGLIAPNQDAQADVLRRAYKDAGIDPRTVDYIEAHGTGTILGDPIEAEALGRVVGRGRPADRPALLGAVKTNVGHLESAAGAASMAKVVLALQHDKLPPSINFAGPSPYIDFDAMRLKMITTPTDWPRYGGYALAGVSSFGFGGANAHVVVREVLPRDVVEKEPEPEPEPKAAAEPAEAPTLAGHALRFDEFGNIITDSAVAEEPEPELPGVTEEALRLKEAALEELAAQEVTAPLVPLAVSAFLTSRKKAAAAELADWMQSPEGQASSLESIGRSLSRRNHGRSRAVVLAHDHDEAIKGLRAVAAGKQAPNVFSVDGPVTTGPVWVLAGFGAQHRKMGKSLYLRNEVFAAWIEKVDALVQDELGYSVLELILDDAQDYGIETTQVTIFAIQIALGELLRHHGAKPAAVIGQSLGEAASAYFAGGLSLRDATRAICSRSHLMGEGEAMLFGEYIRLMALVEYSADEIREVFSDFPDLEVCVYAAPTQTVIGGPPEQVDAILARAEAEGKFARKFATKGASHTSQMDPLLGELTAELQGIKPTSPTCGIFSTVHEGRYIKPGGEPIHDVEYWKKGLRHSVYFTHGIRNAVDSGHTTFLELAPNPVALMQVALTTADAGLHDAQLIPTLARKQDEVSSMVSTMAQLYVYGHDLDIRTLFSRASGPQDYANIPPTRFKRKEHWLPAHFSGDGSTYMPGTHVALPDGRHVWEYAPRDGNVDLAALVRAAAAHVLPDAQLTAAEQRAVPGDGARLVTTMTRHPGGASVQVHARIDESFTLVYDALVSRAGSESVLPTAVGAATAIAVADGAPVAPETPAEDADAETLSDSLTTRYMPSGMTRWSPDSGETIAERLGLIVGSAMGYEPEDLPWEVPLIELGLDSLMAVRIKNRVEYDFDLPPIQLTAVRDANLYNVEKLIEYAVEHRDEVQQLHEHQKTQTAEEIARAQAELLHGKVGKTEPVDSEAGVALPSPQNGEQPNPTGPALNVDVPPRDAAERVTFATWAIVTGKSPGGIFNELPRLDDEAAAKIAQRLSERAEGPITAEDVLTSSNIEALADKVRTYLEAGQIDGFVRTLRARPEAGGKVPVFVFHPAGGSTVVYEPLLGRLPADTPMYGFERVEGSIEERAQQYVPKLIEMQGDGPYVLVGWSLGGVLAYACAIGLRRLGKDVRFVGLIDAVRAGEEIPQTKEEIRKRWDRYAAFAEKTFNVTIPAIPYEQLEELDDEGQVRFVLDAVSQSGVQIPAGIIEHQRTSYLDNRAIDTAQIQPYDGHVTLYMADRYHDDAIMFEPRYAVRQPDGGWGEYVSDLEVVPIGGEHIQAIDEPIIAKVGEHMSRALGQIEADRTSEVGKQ

A: 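Coenzyme A biosynthesis protein CoaBC, Mycobacterium tuberculosis (UniProt P9WNZ1). Enzyme assay of CoaBC with a phosphate dye (Biomol Green) read at 650 nm. Concentration: 30 µM. Higher reads as stronger inhibition, judged from the few compounds that gave an IC50. Most strong results did not repeat in a second test. About 67,000 compounds were tested under these conditions; 0.06% (about 40) showed 50% or more at least once.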
B: 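Tryptophan-tRNA ligase, Mycobacterium tuberculosis (UniProt P9WFT3). Enzyme assay of tryptophanyl-tRNA synthetase; the read-out is not stated. Compounds at 10 µM. Higher most likely means stronger inhibition; the record gives no direction and few retests gave an IC50. About 65,000 compounds were tested under these conditions; 0.098% (about 64) showed 50% or more at least once.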
C: 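Enzyme assay of the thioesterase domain of polyketide synthase 13; the read-out is not stated. Target: Polyketide synthase Pks13, Mycobacterium tuberculosis (UniProt I6X8D2). Concentration: 30 µM. Higher reads as stronger inhibition (inferred from which compounds were picked for retests). Size under these conditions: about 67,000 compounds, about 300 of them at 50% or above in at least one test.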

Each number is a percent effect as filed. The controls that fix the scale are not given in the record; negative values are as filed. This is an unselected part of the compounds tested. A dash means the value is not listed here; it may have been measured.

SMILES | A | B | C
Cc1cnc(CN(C)C2CCN(CCc3ccccn3)CC2)cn1 | 1.686% | -3.207% | -11.19%
O=C1CCCC2(CCN(C(=O)c3ccccn3)CC2)N1 | -2.29% | 5.416% | -18.33%
CC1(C)CNC(=O)CN(C(=O)COc2ccccc2)C1 | -0.3681% | - | 5.258%
CCCNc1ncc(CN2CCC3(CCNC(=O)CC3)CC2)cn1 | -5.765% | -0.8043% | -10.79%
Cc1ccccc1Oc1ncccc1CNS(=O)(=O)N(C)C | -4.485% | 1.077% | -12.38%
Cc1csc(CN(C)C(=O)c2cccc(CCC(C)(C)O)c2)n1 | -1.799% | -5.416% | -10.75%
Cc1nnc(CN2CCCC2c2ccc3c(c2)OCCCO3)n1C (configuration not stated) | 5.697% | 1.751% | -2.462%
Cc1ccc(C(=O)NCC2Cc3ccccc3O2)cc1S(C)(=O)=O (configuration not stated) | -1.222% | -2.584% | -14.12%
CCN1CC2(CNCCN(C(=O)Nc3ccccc3)C2)CC1=O (configuration not stated) | 3.308% | 4.285% | -9.878%
CN(c1ccc(CNc2c(Cl)cccc2C#N)cc1)S(C)(=O)=O | 10.26% | -4.19% | -31.36%
O=C(CN1CCc2cncnc2C1)NCCOc1ccccc1 | 7.513% | 6.53% | -1.675%
CS(=O)(=O)NCc1cnc2n1CCN(Cc1ccsc1)CC2 | -3.656% | 4.194% | -3.975%
CSCc1noc(CNC(=O)C2CCN(C(=O)C3CCCC3)CC2)n1 | -0.2296% | 5.156% | -14.39%
Cc1ccc(-c2ccnc(N[C@H]3COC[C@@H]3N3CCCC3)n2)c(C)n1 | 12.05% | -4.052% | -22.77%
Cc1ccc(CN2CC[C@H]3[C@@H]2CCC(=O)N3CCN2CCCC2)s1 | 15.54% | 2.115% | -35.8%
COc1cccc2cc(CNC(=O)N3CCS(=O)(=O)CC3)oc12 | 3.675% | 26.59% | -28.36%
CC(NC(=O)Nc1cccnc1N1CCOCC1)c1ccncc1 (configuration not stated) | 2.871% | -1.068% | -23.58%
C1CC1c1nsc(N2CCN(C3CC3)CC2)n1 | 10.45% | 0.2138% | -13.38%
Cn1cnc2cc(C(=O)NS(=O)(=O)c3ccccc3Cl)ccc21 | 6.311% | -0.4706% | -24.36%
CC(C)NC(=O)N1CCc2c(CNc3ncccn3)cncc2C1 | -0.9772% | 0.8137% | 15.98%
Nc1ncncc1-c1noc([C@@H]2CCCN2CC2CC2)n1 | 9.051% | -1.593% | 15.41%
COc1cc(N2CCC3(CCN(Cc4csc(C)n4)C3=O)C2)ncn1 (configuration not stated) | 7.178% | - | 0.6568%
O=C(NCCCSc1ccc(F)cc1)C1CCc2cn[nH]c2C1 (configuration not stated) | 0.3891% | 1.709% | -15.43%
CN(C)c1ncncc1NC(=O)Cc1c[nH]c2ccc(F)cc12 | 5.295% | 0.892% | -12.64%
COc1ccc2c(c1)OCC(C(=O)NCc1nc3c(s1)CCCC3)C2 (configuration not stated) | 14.35% | 2.352% | -4.461%
O=C1CC2(CCN(c3nncs3)C2)CN1c1ccccc1 (configuration not stated) | -1.449% | -1.501% | -9.378%
O=C(N1CCCC1)N1CCN(Cc2cccnc2)c2ncccc2C1 | 4.316% | -4.167% | -16.89%
COCCOc1ccnc(-c2noc([C@@H]3CCCN3CC3CC3)n2)c1 | -3.311% | -2.352% | -25.16%
CCc1nnc2n1CCN(C(=O)c1ccc3c(c1)[nH]c(=O)n3C)C2 | -0.2551% | 3.183% | 4.798%
Cc1ccc(CNC(=O)NC2CCC(O)CC2)c(N2CCCC2)c1 (configuration not stated) | 7.018% | -0.8738% | -21%
O=C(NCc1cc[nH]n1)NCC(O)c1ccccc1F (configuration not stated) | 10% | -2.596% | -29.48%
Cc1cc(C(=O)NCC(C)C)nn1C | 14.91% | 1.508% | -23.26%
Cn1cc([C@@H]2CN(S(C)(=O)=O)C[C@H]2N)c2ccncc21 | -2.891% | 7.74% | -11.58%
Cc1cccc(CN2C[C@@H]3COC[C@]3(CNC(=O)C3CCC3)C2)c1 | 3.589% | - | -1.937%
Cc1cccc(C(=O)N2CCN(CCC(C)C)CC2)n1 | -1.607% | 9.874% | -19.09%
Cn1cc(CCCN2CCN(Cc3cccc(O)c3)CC2)cn1 | -20.4% | -7.245% | -26.18%
O=C(Cc1ccsc1)NCC1OCCc2cn(CC3CC3)nc21 (configuration not stated) | 1.901% | 3.859% | -17.62%
CCN1CC2(CCC1=O)CCN(Cc1nncn1C)CC2 | - | -3.302% | -32.44%
Cc1cc(C2CCCN2Cc2ccn(C)c(=O)c2)no1 (configuration not stated) | 2.332% | 6.162% | -3.027%
CC(C)(C)OC(=O)NCC1CCCCN1Cc1cccnc1 (configuration not stated) | 3.004% | 3.958% | -5.826%
CC[C@@H](CO)NC(=O)c1coc(COc2ccc(OC)cc2)n1 | -0.4405% | -0.5029% | -5.647%
CC1(C(=O)N2CCOCC2)CN(Cc2ccccc2F)CCO1 (configuration not stated) | 1.295% | 0.7048% | -17.34%
CCN1CCN(Cc2nc(CCc3ccccc3)n[nH]2)CC1 | 3.293% | 3.444% | -12.87%
O=C(Nc1ccccn1)c1cncc(C2CCNCC2)n1 | 7.601% | -2.785% | -16.66%
CN(C)S(=O)(=O)c1ccc(CNC(=O)C2CC(=O)N(C(C)(C)C)C2)cc1 (configuration not stated) | -2.871% | -2.734% | -4.488%
O=C1NCC2(CCCN(C(=O)c3csc(-c4cccs4)n3)C2)O1 (configuration not stated) | 15.21% | 0.4078% | -15.2%
O=C(c1ccncc1)N1CCC(c2nc(O)cc(-c3cccnc3)n2)C1 (configuration not stated) | 14.25% | -0.5286% | -26.01%
CNC(=O)C(C)(C)N1CCC[C@H]1C(=O)NC1CCCC1 | 2.032% | 3.84% | -9.095%
Cc1nc(-c2ccc(Cl)s2)sc1C(=O)NC(C)(C)C(N)=O | 7.597% | -3.58% | 59.7%
CCCc1[nH]n(C)c(=N)c1-c1ccc2c(c1)OCO2 | -0.7444% | 3.236% | -17.6%
COCCN1C[C@@H](C)[C@@]2(COCCN(C(=O)Cc3ccccc3)C2)C1 | 3.68% | 0.1049% | -4.239%
Cc1ccc(NC2CCN(C(=O)CCc3cscn3)CC2)nn1 | -2.412% | 11.56% | -23.1%
CCN(CC)S(=O)(=O)NCCc1cc(C)ccc1OC | - | 0.9288% | -34.15%
O=C(c1ccc(C2CCCO2)s1)N1CCCOCC1 (configuration not stated) | 5.15% | 0.4397% | -32.2%
CCn1ccnc1CNCC1CCCN1c1cccnn1 (configuration not stated) | 2.216% | -1.267% | -14.9%
c1cncc(COCC2CC[C@H]3[C@H]2OCCN3Cc2ccoc2)c1 (some centres not stated) | -0.2475% | - | -44.33%
O=C1COC2(CCN(Cc3ccco3)CC2)CN1CCn1cccn1 | 4.583% | -5.712% | -38.99%
COc1ccc(CS(=O)(=O)CC(=O)NCc2ccccc2F)cc1F | -4.453% | -6.25% | -45.07%
CCc1cnc(N2CCC3(CC2)CCN(c2cnn(C)c2)C3=O)nc1 | - | 9.817% | 26.84%
CC(C)c1noc(CCC(=O)Nc2cc(C(F)(F)F)c[nH]c2=O)n1 | -1.107% | -4.755% | -3.136%
CCc1cnc(CN(C(C)=O)C2CCN(CC(=O)N3CCCC3)C2)o1 (configuration not stated) | 3.448% | -4.916% | -5.82%
CCc1nc(CN(C)C2CCN(CCOc3ccccc3)C2)no1 (configuration not stated) | -11.53% | 0.3975% | -42.91%
OC(COc1ccccc1)CN1CCC(c2ccn[nH]2)CC1 (configuration not stated) | -1.028% | 1.023% | -30.29%

Once more, the final 7:

SMILES,A,B,C
O=C1COC2(CCN(Cc3ccco3)CC2)CN1CCn1cccn1,4.583%,-5.712%,-38.99%
COc1ccc(CS(=O)(=O)CC(=O)NCc2ccccc2F)cc1F,-4.453%,-6.25%,-45.07%
CCc1cnc(N2CCC3(CC2)CCN(c2cnn(C)c2)C3=O)nc1,-,9.817%,26.84%
CC(C)c1noc(CCC(=O)Nc2cc(C(F)(F)F)c[nH]c2=O)n1,-1.107%,-4.755%,-3.136%
CCc1cnc(CN(C(C)=O)C2CCN(CC(=O)N3CCCC3)C2)o1 (configuration not stated),3.448%,-4.916%,-5.82%
CCc1nc(CN(C)C2CCN(CCOc3ccccc3)C2)no1 (configuration not stated),-11.53%,0.3975%,-42.91%
OC(COc1ccccc1)CN1CCC(c2ccn[nH]2)CC1 (configuration not stated),-1.028%,1.023%,-30.29%

Data taken from ChEMBL document CHEMBL3988442, “University of Dundee, Small-Polar-MMV Screening Library” (2021).